# Laboratory results from the supplement of paper PMC12067093, “Discovery and optimisation of a covalent ligand for TRIM25 and its application to targeted protein ubiquitination” (Chemical Science, 2025).
# Chains of the proteins cited; added tags and fusions are not shown. Lines headed by an entry give the natural chain unless they say otherwise; changes in a name come on top.
# UniProt O75563, whole entry, looked up: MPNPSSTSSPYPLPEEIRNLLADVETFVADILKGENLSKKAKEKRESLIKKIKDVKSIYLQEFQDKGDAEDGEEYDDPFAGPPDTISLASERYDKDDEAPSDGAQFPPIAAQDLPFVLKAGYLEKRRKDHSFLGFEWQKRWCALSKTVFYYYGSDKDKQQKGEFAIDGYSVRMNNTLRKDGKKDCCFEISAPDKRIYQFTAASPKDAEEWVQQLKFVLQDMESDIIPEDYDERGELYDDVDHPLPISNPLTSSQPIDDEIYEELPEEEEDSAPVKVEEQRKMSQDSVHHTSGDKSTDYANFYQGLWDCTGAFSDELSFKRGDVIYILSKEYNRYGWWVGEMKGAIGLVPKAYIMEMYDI
# UniProt Q96ST3: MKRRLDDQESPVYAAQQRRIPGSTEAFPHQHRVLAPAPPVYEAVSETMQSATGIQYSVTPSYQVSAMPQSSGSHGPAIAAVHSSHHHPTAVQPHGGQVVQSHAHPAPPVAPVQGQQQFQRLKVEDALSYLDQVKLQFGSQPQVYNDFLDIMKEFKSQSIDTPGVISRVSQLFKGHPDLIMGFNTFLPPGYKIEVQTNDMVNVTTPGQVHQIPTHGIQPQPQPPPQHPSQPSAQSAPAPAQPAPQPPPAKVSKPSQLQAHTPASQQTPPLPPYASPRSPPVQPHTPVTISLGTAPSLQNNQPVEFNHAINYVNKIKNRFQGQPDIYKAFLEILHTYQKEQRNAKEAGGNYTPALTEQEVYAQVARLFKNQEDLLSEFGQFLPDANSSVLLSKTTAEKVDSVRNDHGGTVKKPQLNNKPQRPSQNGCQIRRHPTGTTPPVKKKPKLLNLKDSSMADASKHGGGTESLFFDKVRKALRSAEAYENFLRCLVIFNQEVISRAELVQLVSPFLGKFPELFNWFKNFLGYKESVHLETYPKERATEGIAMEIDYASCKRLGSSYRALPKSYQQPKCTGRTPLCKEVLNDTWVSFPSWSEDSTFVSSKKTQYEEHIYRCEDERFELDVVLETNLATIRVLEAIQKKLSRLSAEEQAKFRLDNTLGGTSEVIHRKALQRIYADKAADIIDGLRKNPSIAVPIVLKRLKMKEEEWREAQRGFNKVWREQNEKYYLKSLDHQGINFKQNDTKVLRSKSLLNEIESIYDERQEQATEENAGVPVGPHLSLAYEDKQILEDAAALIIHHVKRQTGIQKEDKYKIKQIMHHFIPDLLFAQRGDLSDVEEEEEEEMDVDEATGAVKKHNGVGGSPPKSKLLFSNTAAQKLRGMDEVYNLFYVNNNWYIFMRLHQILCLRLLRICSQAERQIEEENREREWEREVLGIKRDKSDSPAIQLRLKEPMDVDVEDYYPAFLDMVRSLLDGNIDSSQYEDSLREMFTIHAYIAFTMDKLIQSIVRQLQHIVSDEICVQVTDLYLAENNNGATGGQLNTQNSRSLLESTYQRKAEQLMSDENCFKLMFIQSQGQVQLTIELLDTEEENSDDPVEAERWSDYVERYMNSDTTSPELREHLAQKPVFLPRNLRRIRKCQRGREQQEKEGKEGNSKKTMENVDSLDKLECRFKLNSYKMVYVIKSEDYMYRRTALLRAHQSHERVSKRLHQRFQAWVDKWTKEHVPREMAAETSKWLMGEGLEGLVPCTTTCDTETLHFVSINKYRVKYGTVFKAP
# UniProt Q149N8: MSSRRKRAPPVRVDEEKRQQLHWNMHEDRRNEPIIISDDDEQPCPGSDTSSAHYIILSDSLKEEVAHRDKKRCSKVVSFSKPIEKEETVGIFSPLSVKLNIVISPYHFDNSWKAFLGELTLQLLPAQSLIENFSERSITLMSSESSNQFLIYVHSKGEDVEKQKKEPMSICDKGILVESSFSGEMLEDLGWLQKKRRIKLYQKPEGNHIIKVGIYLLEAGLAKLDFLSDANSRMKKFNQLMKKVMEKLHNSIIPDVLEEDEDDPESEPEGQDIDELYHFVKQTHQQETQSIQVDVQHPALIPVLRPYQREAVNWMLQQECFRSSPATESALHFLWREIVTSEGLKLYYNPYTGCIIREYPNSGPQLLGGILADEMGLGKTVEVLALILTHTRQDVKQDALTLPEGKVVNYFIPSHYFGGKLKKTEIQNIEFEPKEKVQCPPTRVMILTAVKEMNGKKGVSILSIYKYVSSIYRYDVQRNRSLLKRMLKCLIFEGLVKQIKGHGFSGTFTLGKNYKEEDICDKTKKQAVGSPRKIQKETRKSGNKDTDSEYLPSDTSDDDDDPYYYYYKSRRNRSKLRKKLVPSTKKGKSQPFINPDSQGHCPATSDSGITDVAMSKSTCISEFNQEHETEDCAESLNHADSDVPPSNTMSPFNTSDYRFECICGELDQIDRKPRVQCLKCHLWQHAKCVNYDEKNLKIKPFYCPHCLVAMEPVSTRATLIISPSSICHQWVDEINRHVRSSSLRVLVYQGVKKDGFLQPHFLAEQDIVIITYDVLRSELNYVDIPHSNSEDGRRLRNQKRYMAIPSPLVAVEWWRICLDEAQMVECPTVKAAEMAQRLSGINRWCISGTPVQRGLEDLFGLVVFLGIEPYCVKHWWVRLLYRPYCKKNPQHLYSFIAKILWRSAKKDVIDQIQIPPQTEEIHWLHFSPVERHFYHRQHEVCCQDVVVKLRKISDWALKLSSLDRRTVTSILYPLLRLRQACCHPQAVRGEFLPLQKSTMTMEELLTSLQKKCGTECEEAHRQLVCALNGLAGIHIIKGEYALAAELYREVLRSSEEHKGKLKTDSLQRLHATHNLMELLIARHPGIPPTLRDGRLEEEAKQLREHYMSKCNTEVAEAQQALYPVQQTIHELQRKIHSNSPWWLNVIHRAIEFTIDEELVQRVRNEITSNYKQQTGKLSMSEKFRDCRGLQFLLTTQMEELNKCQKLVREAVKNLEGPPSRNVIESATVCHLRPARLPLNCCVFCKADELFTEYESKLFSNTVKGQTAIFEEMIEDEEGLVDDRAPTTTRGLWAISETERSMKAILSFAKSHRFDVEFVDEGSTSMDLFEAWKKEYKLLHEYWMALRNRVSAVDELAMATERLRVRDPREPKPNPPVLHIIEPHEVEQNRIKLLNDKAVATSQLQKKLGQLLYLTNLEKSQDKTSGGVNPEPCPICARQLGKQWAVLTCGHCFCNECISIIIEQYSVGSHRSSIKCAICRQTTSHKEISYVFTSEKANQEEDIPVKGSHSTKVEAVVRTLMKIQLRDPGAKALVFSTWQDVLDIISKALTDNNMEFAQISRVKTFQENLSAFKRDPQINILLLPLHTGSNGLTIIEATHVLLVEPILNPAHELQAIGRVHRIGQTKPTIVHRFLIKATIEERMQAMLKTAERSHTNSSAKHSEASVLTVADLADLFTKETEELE
# UniProt Q9UPS6, whole entry, looked up: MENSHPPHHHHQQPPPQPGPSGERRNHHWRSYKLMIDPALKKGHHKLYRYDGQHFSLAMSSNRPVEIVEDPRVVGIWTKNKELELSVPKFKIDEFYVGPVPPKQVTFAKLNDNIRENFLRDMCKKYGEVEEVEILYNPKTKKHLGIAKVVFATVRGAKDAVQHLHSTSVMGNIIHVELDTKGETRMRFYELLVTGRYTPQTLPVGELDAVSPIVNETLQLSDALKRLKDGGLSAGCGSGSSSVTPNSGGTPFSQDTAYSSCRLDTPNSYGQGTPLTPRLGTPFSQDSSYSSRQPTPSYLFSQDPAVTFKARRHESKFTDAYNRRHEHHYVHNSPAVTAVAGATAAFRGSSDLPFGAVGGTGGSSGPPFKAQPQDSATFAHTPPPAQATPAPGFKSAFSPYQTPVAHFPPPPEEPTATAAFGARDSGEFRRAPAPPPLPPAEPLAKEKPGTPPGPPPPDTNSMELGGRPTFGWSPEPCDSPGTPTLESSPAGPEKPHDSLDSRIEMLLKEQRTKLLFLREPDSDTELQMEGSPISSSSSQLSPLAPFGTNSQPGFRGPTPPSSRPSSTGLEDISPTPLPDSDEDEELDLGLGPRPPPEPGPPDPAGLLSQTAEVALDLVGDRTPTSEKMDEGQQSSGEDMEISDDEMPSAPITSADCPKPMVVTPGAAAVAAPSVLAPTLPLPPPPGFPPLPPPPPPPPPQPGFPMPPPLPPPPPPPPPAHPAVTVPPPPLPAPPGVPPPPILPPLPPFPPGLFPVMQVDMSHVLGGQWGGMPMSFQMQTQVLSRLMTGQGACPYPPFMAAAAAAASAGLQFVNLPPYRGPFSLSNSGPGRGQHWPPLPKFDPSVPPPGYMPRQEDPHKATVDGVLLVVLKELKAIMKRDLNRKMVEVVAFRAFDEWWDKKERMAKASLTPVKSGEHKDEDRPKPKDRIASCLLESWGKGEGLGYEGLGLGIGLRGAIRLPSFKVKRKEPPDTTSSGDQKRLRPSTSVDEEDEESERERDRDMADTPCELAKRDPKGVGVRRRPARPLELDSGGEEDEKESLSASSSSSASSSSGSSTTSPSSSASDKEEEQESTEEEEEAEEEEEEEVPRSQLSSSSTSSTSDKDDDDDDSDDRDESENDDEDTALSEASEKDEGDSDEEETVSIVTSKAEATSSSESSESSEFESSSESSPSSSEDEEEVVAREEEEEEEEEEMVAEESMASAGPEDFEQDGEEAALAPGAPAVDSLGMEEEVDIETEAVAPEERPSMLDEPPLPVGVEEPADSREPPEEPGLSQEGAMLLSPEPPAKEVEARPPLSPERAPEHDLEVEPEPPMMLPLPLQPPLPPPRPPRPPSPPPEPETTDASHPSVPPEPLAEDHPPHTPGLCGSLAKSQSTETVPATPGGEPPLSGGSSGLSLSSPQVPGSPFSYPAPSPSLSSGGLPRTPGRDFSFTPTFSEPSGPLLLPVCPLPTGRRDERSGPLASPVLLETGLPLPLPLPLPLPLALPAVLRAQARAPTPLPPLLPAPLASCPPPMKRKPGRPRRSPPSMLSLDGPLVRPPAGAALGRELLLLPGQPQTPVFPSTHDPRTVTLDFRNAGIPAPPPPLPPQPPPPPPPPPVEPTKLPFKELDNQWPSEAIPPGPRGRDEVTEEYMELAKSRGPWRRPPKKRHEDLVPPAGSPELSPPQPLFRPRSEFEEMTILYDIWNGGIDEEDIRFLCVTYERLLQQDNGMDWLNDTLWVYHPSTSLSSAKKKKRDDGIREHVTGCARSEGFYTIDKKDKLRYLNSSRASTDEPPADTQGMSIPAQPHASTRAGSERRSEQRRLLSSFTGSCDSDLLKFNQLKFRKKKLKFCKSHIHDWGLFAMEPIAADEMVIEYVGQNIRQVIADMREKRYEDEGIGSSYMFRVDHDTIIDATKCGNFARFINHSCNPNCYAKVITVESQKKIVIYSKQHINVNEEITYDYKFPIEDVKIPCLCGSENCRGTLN
# UniProt O75746: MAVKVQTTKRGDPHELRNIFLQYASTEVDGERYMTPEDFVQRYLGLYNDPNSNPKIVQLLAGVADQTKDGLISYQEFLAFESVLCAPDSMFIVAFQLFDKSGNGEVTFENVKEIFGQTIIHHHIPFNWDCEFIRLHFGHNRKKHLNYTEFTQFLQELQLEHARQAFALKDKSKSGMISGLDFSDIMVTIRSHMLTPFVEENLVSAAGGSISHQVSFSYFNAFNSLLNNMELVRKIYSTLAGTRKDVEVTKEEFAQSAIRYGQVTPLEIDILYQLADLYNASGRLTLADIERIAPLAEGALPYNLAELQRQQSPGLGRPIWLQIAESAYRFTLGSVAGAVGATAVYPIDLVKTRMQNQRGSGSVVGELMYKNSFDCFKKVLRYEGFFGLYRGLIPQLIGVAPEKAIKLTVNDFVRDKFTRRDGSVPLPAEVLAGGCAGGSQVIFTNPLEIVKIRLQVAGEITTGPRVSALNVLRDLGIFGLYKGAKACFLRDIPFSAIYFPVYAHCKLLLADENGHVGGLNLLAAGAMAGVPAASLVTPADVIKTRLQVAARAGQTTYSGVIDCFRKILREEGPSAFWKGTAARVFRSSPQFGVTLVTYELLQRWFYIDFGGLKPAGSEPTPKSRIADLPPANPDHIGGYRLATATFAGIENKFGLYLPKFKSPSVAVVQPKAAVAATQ
# UniProt Q9UHD8: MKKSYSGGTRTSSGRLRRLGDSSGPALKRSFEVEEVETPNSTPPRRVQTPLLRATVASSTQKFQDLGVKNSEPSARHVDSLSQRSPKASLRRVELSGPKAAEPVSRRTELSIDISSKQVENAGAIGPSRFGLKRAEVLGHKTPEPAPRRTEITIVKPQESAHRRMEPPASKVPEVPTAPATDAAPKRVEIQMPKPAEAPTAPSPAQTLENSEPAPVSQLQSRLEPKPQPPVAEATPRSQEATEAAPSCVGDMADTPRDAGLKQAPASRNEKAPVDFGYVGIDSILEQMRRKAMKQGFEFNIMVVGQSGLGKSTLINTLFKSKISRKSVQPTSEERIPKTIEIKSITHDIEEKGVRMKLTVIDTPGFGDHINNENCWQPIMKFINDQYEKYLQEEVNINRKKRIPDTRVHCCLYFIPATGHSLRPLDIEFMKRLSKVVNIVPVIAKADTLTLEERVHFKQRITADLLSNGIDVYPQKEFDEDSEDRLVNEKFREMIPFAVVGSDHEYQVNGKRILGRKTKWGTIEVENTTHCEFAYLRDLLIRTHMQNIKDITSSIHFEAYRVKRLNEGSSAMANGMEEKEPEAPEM
# The list shows a part of the results.
# Compound: CC1Cc2ccccc2N1C(=O)C1CCCN(C1)C(=O)CCl (mixture of isomers) [TRIM25 ligand 11 (diastereomer mixture)]
# Assay: probe-labelled cysteine peptide fold change vs DMSO (competition) (log2 fold change); higher = less target engagement (more negative = stronger competition)
# Conditions: THP-1, incubation time: 4 h
# 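Note: competitive chemoproteomic profiling in live THP-1 cells with an iodoacetamide desthiobiotin (IA-DTB) probe, comparing probe-labelled peptide intensities in compound-treated cells against DMSO-treated controls.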
Target,probe-labelled cysteine peptide fold change (10 µM),probe-labelled cysteine peptide fold change (50 µM)
SETD3_Q86TU7_36_CSSPAPGPGK (UniProt Q86TU7),-0.0972,-0.145
SLC1A5_Q15758_467_SCTVLNVEGDALGAGLLQNYVDR (UniProt Q15758),-0.0169,0.588
SFMBT1_Q9UHJ3_659_IGRPPGGHSNLACALKK (UniProt Q9UHJ3),-0.209,-0.242
SIPA1L3_O60292_597_DALEYVIPELNIHCLR (UniProt O60292),0.292,0.0602
SKAP2_O75563_185+186_DCCFEISAPDKR (UniProt O75563),0.0134,0.18
SHC1_P29353_574_FESVSHLISYHMDNHLPIISAGSELCLQQPVER (UniProt P29353),0.226,-0.0831
SHCBP1_Q8NEM2_591_IQTSGEPDVAERVDLEELIECATGK (UniProt Q8NEM2),-0.219,-0.443
SIN3A_Q96ST3_425_KPQLNNKPQRPSQNGCQIR (UniProt Q96ST3),-0.14,-0.255
SKAP2_O75563_186_DCCFEISAPDK (UniProt O75563),0.239,0.128
SLC22A15_Q8IZD6_438_NVGLGTCSMFSR (UniProt Q8IZD6),0.181,0.0289
SIN3B_O75182_1138_TLCETVHVHGLPVTR (UniProt O75182),0.0309,-0.019
SKP1_P63208_62_KVIQWCTHHK (UniProt P63208),-0.104,0.072
SEPT5_Q99719_300_DVTCDVHYENYR (UniProt Q99719),0.188,0.171
SKIV2L_Q15477_913_LFLPEGPCDHTVVK (UniProt Q15477),0.126,0.0639
SERPINF2_P08697_152_LCQDLGPGAFR (UniProt P08697),0.591,0.7
SF3A3_Q12874_408_LHGLNINYNCEICGNYTYR (UniProt Q12874),-0.209,-0.00794
SHPRH_Q149N8_1435_TSGGVNPEPCPICAR (UniProt Q149N8),0.0553,-0.0373
SEPT5_Q99719_193_ADCLVPSEIR (UniProt Q99719),-0.096,-0.0753
SETX_Q7Z333_1565_NQGEYCPK (UniProt Q7Z333),-0.111,-0.15

Target,probe-labelled cysteine peptide fold change (10 µM),probe-labelled cysteine peptide fold change (50 µM)
SETD1B_Q9UPS6_1908_FINHSCNPNCYAK (UniProt Q9UPS6),0.121,0.178
SH3KBP1_Q96B97_301_DCIDVGWWEGELNGR (UniProt Q96B97),-0.0633,0.0287
SLC25A12_O75746_563_AGQTTYSGVIDCFRK (UniProt O75746),-0.194,-0.0537
SERPINB6_P35237_100_SCDFLSSFR (UniProt P35237),0.00189,-0.0617
SEPT9_Q9UHD8_248_SQEATEAAPSCVGDMADTPR (UniProt Q9UHD8),0.0287,-0.157
SLC25A19_Q9HC21_124_EFSVHFVCGGLAACMATLTVHPVDVLR (UniProt Q9HC21),0.0463,0.118
SIRT1_Q96EB6_574_GCMEEKPQEVQTSR (UniProt Q96EB6),-0.213,-0.285
SHC1_P29353_169_YMGCVEVLQSMR (UniProt P29353),0.0199,0.168
SHPRH_Q149N8_1110_CNTEVAEAQQALYPVQQTIHELQR (UniProt Q149N8),-0.335,-0.156
SEPT9_Q9UHD8_410+411_VHCCLYFIPATGHSLRPLDIEFMK (UniProt Q9UHD8),-0.00179,0.122
SF3B3_Q15393_589_EMSADVVCMSLANVPPGEQR (UniProt Q15393),-0.0403,-0.0588
SIN3A_Q96ST3_425_PQRPSQNGCQIR (UniProt Q96ST3),-0.0855,0.127
SLC25A12_O75746_130_EIFGQTIIHHHIPFNWDCEFIR (UniProt O75746),0.209,0.129
SF3B1_O75533_1244_VAIGPCR (UniProt O75533),-0.0327,0.264
SHCBP1_Q8NEM2_254_LHYDILEDRVPSGLIVDYHNLLSQCEESYR (UniProt Q8NEM2),0.175,0.0706
SHPK_Q9UHJ6_132_CSSEFLASLPQPK (UniProt Q9UHJ6),-0.114,-0.0558
SEPT11_Q9NVA2_41_STSQGFCFNILCVGETGIGK (UniProt Q9NVA2),0.108,0.113
SF3A3_Q12874_103_KHPNEICVPMSVEFEELLK (UniProt Q12874),0.0381,-0.0958

# Looked up above.
# probe-labelled cysteine peptide fold change (50 µM), SETD1B_Q9UPS6_1908_FINHSCNPNCYAK (UniProt Q9UPS6) is entered as 0.178
# probe-labelled cysteine peptide fold change (10 µM), SLC25A12_O75746_563_AGQTTYSGVIDCFRK (UniProt O75746) is entered as -0.194
